According to US8623196B2 (priority 2007, dated 2014):

Tested on: tyrosinase
Assay type: biochemical
Details: NEST biosensor, 0.1 M phosphate buffer pH 7.0, −0.1 V

SMILES | concentration at which saturation was reached
Oc1ccccc1 [phenol] | approximately 75 μM
Oc1ccccc1O [catechol] | approximately 85 μM
